Laboratory results: paper doi:10.1101/2023.04.09.536178
Read-outs that look alike come from different tables or passages of the source. These are yes or no findings as the source states them, for the method shown. In cells and extracts the contact can be indirect. Here binding means that the protein was enriched with, or labelled near, the bait; the list need not be complete.

The chains behind the UniProt entries cited, without tags or fusion partners.
UniProt P15311: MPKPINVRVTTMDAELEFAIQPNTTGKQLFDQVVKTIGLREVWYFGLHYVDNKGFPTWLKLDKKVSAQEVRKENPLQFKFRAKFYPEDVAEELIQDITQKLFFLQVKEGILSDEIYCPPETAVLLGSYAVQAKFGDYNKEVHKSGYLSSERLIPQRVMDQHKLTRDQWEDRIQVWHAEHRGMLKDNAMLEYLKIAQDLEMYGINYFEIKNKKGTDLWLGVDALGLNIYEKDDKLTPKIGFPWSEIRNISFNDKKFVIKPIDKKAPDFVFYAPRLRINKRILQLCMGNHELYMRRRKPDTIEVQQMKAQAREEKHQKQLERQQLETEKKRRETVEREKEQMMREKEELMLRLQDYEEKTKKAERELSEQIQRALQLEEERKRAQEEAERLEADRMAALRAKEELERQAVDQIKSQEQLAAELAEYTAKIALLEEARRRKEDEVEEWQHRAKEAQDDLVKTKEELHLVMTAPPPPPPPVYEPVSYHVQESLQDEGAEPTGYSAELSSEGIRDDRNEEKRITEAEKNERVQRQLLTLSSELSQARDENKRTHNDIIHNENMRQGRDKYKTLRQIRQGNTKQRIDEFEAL
UniProt Q8CFI0: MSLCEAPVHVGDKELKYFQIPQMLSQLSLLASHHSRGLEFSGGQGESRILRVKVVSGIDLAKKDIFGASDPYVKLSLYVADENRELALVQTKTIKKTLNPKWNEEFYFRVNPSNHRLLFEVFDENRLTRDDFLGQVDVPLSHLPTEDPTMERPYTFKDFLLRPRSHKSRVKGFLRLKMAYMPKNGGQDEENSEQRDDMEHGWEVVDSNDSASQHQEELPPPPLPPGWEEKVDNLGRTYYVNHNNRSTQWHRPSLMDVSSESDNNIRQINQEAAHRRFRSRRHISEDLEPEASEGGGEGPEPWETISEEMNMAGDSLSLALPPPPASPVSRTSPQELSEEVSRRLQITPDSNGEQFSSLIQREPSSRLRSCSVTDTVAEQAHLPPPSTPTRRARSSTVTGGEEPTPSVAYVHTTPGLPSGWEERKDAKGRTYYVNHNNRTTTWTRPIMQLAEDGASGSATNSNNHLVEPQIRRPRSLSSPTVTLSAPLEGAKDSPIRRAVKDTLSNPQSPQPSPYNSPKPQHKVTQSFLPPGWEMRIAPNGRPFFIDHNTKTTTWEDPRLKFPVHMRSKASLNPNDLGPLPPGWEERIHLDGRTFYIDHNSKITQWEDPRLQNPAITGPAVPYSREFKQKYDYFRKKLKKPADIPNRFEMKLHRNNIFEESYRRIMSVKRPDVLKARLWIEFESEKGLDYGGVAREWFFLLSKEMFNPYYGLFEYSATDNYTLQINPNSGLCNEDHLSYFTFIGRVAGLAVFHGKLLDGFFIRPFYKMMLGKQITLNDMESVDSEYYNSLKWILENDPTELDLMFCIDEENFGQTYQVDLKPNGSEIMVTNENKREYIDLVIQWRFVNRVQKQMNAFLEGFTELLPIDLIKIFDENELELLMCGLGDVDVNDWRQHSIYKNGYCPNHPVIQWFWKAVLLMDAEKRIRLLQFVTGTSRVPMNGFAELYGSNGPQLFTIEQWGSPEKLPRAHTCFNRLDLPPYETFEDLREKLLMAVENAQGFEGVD
UniProt P35569: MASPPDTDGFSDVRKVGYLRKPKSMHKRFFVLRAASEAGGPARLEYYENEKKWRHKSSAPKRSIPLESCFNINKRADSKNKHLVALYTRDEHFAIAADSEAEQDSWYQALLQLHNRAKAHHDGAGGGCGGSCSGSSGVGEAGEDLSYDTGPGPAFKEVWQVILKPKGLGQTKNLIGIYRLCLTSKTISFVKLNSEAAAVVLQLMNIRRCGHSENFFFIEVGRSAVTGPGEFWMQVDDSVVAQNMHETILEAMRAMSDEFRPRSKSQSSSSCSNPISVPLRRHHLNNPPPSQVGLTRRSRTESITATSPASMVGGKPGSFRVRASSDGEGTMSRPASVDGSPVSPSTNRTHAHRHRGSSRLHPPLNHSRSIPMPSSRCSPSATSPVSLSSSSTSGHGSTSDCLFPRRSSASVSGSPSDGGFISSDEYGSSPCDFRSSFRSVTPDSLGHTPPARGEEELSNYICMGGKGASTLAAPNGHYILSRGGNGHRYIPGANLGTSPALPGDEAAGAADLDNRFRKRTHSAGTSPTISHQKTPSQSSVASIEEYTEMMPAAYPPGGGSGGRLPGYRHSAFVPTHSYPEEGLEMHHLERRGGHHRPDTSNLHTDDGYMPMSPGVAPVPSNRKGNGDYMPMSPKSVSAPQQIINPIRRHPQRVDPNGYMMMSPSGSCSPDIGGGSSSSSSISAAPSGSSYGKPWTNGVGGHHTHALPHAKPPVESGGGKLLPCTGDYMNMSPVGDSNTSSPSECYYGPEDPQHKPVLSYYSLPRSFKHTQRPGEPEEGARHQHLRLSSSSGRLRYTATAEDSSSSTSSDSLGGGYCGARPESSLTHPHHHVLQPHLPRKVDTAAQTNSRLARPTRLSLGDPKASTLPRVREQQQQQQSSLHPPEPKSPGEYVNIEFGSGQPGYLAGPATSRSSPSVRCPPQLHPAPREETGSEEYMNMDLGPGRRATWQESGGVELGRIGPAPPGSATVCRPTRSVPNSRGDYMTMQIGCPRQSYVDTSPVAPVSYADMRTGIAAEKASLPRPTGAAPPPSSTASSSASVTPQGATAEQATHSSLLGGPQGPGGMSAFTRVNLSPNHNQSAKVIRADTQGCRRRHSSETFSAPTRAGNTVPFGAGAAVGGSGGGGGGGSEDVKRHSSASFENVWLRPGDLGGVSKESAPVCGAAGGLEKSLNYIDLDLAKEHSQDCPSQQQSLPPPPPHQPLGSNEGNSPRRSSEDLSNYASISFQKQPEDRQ
UniProt O88543: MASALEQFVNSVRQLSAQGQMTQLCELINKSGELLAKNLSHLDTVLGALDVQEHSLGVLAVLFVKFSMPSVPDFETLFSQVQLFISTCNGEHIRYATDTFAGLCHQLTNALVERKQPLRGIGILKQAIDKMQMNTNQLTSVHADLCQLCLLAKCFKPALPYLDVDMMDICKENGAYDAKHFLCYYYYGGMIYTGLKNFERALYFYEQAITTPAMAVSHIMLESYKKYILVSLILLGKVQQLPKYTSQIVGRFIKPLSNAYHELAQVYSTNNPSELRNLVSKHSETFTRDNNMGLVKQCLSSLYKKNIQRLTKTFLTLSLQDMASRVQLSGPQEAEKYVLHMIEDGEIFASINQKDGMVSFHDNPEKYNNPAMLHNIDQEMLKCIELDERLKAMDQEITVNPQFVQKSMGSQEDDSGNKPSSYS

B1: autophagy-related gene 7 (Atg7), endogenous (protein, UniProt Q9D906 1-698)
chain: MGDPGLAKLQFAPFNSALDVGFWHELTQKKLNEYRLDEAPKDIKGYYYNGDSAGLPTRLTLEFSAFDMSASTPAHCCPAMGTLHNTNTLEAFKTADKKLLLEQSANEIWEAIKSGAALENPMLLNKFLLLTFADLKKYHFYYWFCCPALCLPESIPLIRGPVSLDQRLSPKQIQALEHAYDDLCRAEGVTALPYFLFKYDDDTVLVSLLKHYSDFFQGQRTKITVGVYDPCNLAQYPGWPLRNFLVLAAHRWSGSFQSVEVLCFRDRTMQGARDVTHSIIFEVKLPEMAFSPDCPKAVGWEKNQKGGMGPRMVNLSGCMDPKRLAESSVDLNLKLMCWRLVPTLDLDKVVSVKCLLLGAGTLGCNVARTLMGWGVRHVTFVDNAKISYSNPVRQPLYEFEDCLGGGKPKALAAAERLQKIFPGVNARGFNMSIPMPGHPVNFSDVTMEQARRDVEQLEQLIDNHDVIFLLMDTRESRWLPTVIAASKRKLVINAALGFDTFVVMRHGLKKPKQQGAGDLCPSHLVAPADLGSSLFANIPGYKLGCYFCNDVVAPGDSTRDRTLDQQCTVSRPGLAVIAGALAVELMVSVLQHPEGGYAIASSSDDRMNEPPTSLGLVPHQIRGFLSRFDNVLPVSLAFDKCTACSPKVLDQYEREGFTFLAKVFNSSHSFLEDLTGLTLLHQETQAAEIWDMSDEETV
B2: Rala (protein, UniProt P63321 1-206)
chain: MAANKPKGQNSLALHKVIMVGSGGVGKSALTLQFMYDEFVEDYEPTKADSYRKKVVLDGEEVQIDILDTAGQEDYAAIRDNYFRSGEGFLCVFSITEMESFAATADFREQILRVKEDENVPFLLVGNKSDLEDKRQVSVEEAKNRADQWNVNYVETSAKTRANVDKVFFDLMREIRARKMEDSKEKNGKKKRKSLAKRIRERCCIL
B3: Anks1a (protein, UniProt P59672 1-1150)
chain: MGKEQELLEAARTGHLPAVEKLLSGKRLSSGFGGGGGGSGSGGGSGGGGLGSSSHPLSSLLSMWRGPNVNCVDSTGYTPLHHAALNGHRDVVEVLLRNDALTNVADSKGCYPLHLAAWKGDAQIVRLLIQQGPSHTRVNEQNALEIRELKKYGPFDPYINAKNNDNETALHCAAQYGHTEVVKALLEELTDPTMRNNKFETPLDLAALYGRLEVVKLLLGAHPNLLSCSTRKHTPLHLAARNGHKAVVQVLLDAGMDSNYQTEMGSALHEAALFGKTDVVQILLAAGIDVNIKDNRGLTALDTVRDLPSQKSQQIAALIEDHMTGKRSVKEVDRTSTAQLPLLSNTDAIAPMSQGSMEKTVTELILHFDTHADEEGPYEALYNAVSCHSLDSTASGRSSDRDSMNKEAEATGTRAAGVRPRERPPPPAKPPPDEEEEERVDKKYFPLAASEGLAVRPRIQSSAPQEEEEHPYELLLTAETKKLGTTDGRTEDHRQSGSGRSQDSVEGQDGQVPEQFSGLLHGSSPVCEVGQDPFQLLTAPSQSHPESSQQDACHEASMQLEEPGVQGTEPPQPGVPDQSKRVGLPAGLTALASRTYLDALTHTVPLRPAGAEEEDQSGPRSRAPPTSKPKAELKLSRSLSKSDSDLLTCSPTEDATMGSRSESLSNCSIGKKRLEKSPSFASEWDEIEKIMSSIGEGIDFSQEQQKISGSRTLEQSVGEWLESIGLQQYESKLLLNGFDDVRFLGSNVMEEQDLREIGISDPQHRRKLLQAARSLPKVKALGYDGVSPTSVPSWLDSLGLQDYVHSFLSSGYSSIDTVKNLWELELVNVLKVHLLGHRKRIIASLADRPYEEPPQKPPRFSQLRCQDLISQTSSPLSQNDSCTGRSADLLLPSADTSRRRHDSLPDPGTASRADRFRVQEEPSETKLTLRPPSLAAPYAPVQSWQHQPEKLIFESCGYEANYLGSMLIKDLRGTESTQDACAKMRKSTEHMKKIPTIILSITYKGVKFIDASNKNVIAEHEIRNISCAAQDPEDLCTFAYITKDLQTSHHYCHVFSTVDVNLTYEIILTLGQAFEVAYQLALQAQKSRTMAASAASMIETKSSKPVPKPRVGMRKSALEPPDSDQEAPSHASVSWIVDPKPDSKRSLSTN
B4: Myo1e (protein, UniProt E9Q634 1-1107)
chain: MGSKGAYRYHWQSHNVKHSGVDDMVLLSKITESSIVENLKKRYMDDYIFTYIGSVLISVNPFKQMPYFGEKEVEMYQGAAQYENPPHIYALADSMYRNMIIDRENQCVIISGESGAGKTVAAKYIMSYVSRVSGGGPKVQHVKDIILQSNPLLEAFGNAKTVRNNNSSRFGKYFEIQFSPGGEPDGGKISNFLLEKSRVVMRNPGERSFHIFYQLIEGASPEQKQSLGITSMDYYYYLSLSGSYKVDDIDDKRDFQETLHAMNVIGIFSEEQTLVLQIVAGILHLGNISFKEVGNYAAVESEEFLAFPAYLLGINQDRLKEKLTSRQMDSKWGGKSESIHVTLNVEQACYTRDALAKALHARVFDFLVDSINKAMEKDHEEYNIGVLDIYGFEIFQKNGFEQFCINFVNEKLQQIFIELTLKAEQEEYVQEGIRWTPIEYFNNKIVCDLIESKVNPPGIMSILDDVCATMHAVGEGADQTLLQKLQMQIGSHEHFNSWNQGFIIHHYAGKVSYDMDGFCERNRDVLFMDLIELMQSSELPFIKSLFPENLQADKKGRPTTAGSKIKKQANDLVSTLMKCTPHYIRCIKPNETKKPKDWEESRVKHQVEYLGLKENIRVRRAGYAYRRVFQKFLQRYAILTKATWPVWRGDEKQGVLHLLQSVNMDSDQFQLGRSKVFIKAPESLFLLEEMRERKYDGYARVIQKTWRKFVARKKYVQMREEASDLLLNKKERRRNSINRNFIGDYIGMEERPELQQFVGKREKIDFADTVTKYDRRFKGVKRDLLLTPKCLYLIGREKVKQGPDKGVVKEVLKRRIEVERILSVSLSTMQDDIFILHEQEYDSLLESVFKTEFLSLLAKRYEEKTQKQLPLKFSNTLELKLKKENWGPWSAGGSRQVQFHQGFGDLAILKPSNKVLQVSIGPGLPKNSRPTRRNTVTSRGYPGGTKNNYPMRAAPAPPGCHQNGVIRNQFVPPPHAFGNQRSNQKSLYTSMARPPLPRQQSTGSDRLSQTPESLDFLKVPDQGVAGVRRQTSSRPPPAGGRPKPQPKPKPQVPQCKALYAYDAQDTDELSFNANDIIDIIKEDPSGWWTGRLRGKQGLFPNNYVTKI

Legend:
[1] = target: Astro-Ezrin-BioID (Ezrin WT-BioID2-HA) (UniProt P15311); experiment: proximity labelling; in vivo BioID: AAV Astro-Ezrin-BioID against Astro-Cyto-BioID control in cortical astrocytes of WT and LRRK2 G2019S ki/ki mice, biotin at P18-P20, cortices at P21; streptavidin agarose purification, LC-MS/MS
[2] = target: Astro-Ezrin-BioID (Ezrin WT-BioID2-HA) (UniProt P15311); experiment: as above; remark: listed apart in the source

Molecule	binding [1]	binding [2]
Nedd4l (from UniProt Q8CFI0 1-1004)	binds	–
Irs1 (from UniProt P35569 1-1233)	binds	–
Cops3 (from UniProt O88543 1-423)	binds	–
B1	–	binds
B2	–	binds
B3	–	binds
B4	–	binds
